No constants are given. Whether binding was seen depends on the method and setting.
What was measured:
[1] = target: T1, recombinant C-terminal Fbln7 fragment (Fbln7-C) (mouse) (UniProt Q501P1); assay: ELISA; solid phase binding assay; 96-well dish coated with protein (1 μg/well) overnight at 4 °C; second protein in PBS (VEGF 500 pg/well, VEGFR1 and VEGFR2 10 ng/well) added for 3 hours; second protein detected by primary antibody and HRP-conjugated secondary antibody; both purified
T1 sequence: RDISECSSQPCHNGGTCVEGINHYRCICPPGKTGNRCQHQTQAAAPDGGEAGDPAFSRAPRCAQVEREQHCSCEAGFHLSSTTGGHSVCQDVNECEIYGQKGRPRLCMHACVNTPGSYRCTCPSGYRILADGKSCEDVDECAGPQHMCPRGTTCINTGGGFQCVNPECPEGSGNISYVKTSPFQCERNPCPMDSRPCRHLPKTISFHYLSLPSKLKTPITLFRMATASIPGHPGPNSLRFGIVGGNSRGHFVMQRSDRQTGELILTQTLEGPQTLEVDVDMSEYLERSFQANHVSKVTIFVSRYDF

[2] = target: T2, recombinant full-length Fbln7 (Fbln7-FL) (mouse) (UniProt Q501P1); assay: as above
T2 sequence: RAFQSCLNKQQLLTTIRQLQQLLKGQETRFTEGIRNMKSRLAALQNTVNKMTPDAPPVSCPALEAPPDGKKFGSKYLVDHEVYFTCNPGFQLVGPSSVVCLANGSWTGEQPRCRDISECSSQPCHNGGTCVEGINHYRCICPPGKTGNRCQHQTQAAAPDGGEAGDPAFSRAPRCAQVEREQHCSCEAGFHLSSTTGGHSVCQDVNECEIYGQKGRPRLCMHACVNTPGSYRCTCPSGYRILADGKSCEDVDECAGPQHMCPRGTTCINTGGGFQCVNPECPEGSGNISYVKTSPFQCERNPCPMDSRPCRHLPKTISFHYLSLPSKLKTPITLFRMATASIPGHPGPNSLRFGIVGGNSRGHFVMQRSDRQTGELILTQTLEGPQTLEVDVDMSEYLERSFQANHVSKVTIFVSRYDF

binding [1]: no binding (tested: 500 pg/well)
binding [2]: no binding (tested: 500 pg/well)
Substance: Recombinant vascular endothelial growth factor (VEGF) 164 (ligand)
